The nature of this test: qHTS Assay for Lipid Storage Modulators in Drosophila S3 Cells.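 As to cell number change: cells counted by Cell Tracker Red CMTPX staining in the red channel.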 The following applies: BODIPY lipid droplet fluorescence, 18-24 h; for cell number change: measured here: cell count max response, cells fed with added oleic acid. Put shortly:
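Laser-scanning cytometry quantifies lipid droplet accumulation (500–530 nm total intensity; droplet/cell object ratio) in oleic acid-fed (400 uM added) Drosophila S3 cells treated with a concentration series. 20 uM Triacsin C defined 100% inhibition.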

Where [1] appears, read: measured here: lipid fluorescence (Fed channel) AC50, cells fed with added oleic acid.
[2] abbreviates: measured here: cell number channel AC50, cells fed with added oleic acid.

The other results are listed elsewhere or left out. Further columns of the screen follow, without active or inactive calls. Compounds called inactive in the main read-out are mostly missing here. Potencies come from curve fits of mixed quality, noted in brackets.

As for `COc1ccc2c(c1)C(C1=C(O)CC(C)(C)CC1=O)C1=C(CC(C)(C)CC1=O)O2` (stereo not given), the cell number change amounted to 23.4%. Moreover, under setting [1], the AC50 is 1.46 µM [falling, full curve].

For the compound `CCc1ccccc1N(CC)C(=O)CCc1nc(-c2ccc(C)cc2)no1`, the cell number change is 2.77%. Further, the AC50 under setting [1] is 4.11 µM [falling, full curve, poor fit].

As to `C=CCN1C(=NC(=O)CCCC(=O)O)SC2CS(=O)(=O)CC21` (stereo not given), the cell number change was -80.1%. Besides, under setting [2], the AC50 is 18.4 µM [falling, partial curve]. Further, the AC50 under setting [1] was 0.231 µM [falling, full curve].

With `O=C(CC1CCCCC1)N1CCCC(c2nc(-c3ccc(S(=O)(=O)N4CCCC4)cc3)no2)C1` (stereo not given), the cell number change was -5.68%. For the same compound, the AC50 under setting [1] was 0.0058 µM [falling, full curve].

For `COc1cc(/C=C/c2[nH]c(=O)[nH]c(=O)c2[N+](=O)[O-])ccc1OCCC(C)C`, the cell number change is -20.4%. The AC50 under setting [1] is 16.4 µM [falling, single point].

Regarding `CCOC(=O)c1cnc(Cc2ccccc2)[nH]c1=O`, the cell number change stood at 60.2%. The AC50 under setting [2] was 14.6 µM [rising, partial curve, poor fit]. In addition, the AC50 under setting [1] is 29.1 µM [rising, single point].

On to `CC(=O)NC(c1cc(Cl)c2cccnc2c1O)C1CC1` (stereo not given), for which the cell number change turned out to be 7.05%. For the same compound, the AC50 under setting [1] was 1.16 µM [falling, single point].

With `Cc1ccc(C(=O)C2CCN(CC(=O)NC3CCCCC3)CC2)cc1`, the cell number change worked out at 10.8%. Also, the AC50 under setting [1] was 4.61 µM [rising, full curve, poor fit].

As to `O=C(O)c1ccc(Nc2nc3ccccc3nc2NS(=O)(=O)c2cccs2)cc1`, the cell number change turned out to be 7.65%. The AC50 under setting [1] is 29.1 µM [rising, single point].

For the compound `CC(=O)Nc1ccc(S(=O)(=O)NCCc2cc3c(C)ccc(C)c3[nH]c2=O)cc1`, the cell number change turned out to be 58.6%. Besides, under setting [2], the AC50 was 16.4 µM [rising, partial curve].

As to `Cc1cc(C(=O)O[C@H]2[C@H](Cc3ccccc3)NS(=O)(=O)[C@H]3C[C@@H]4C=C[C@]23O4)ccc1[N+](=O)[O-]`, the cell number change was -5.03%. Besides, the AC50 under setting [2] is 1.3 µM [falling, partial curve]. For the same compound, the concentration at half-maximal activity (AC50) under setting [1] is 1.84 µM [falling, partial curve].

`NCCOc1cnn(-c2ccccc2Cl)c(=O)c1Cl`: the cell number change stood at 25.2%. The AC50 under setting [1] was 29.1 µM [falling, partial curve].

Turning to `O=C(NC1CC1)C1CCN(C2CCN(C(=O)/C=C/c3cccc(F)c3F)CC2)CC1`, the cell number change is -0.575%.

In the case of `O=C(CCCc1ccccc1)Nc1ccc(S(=O)(=O)N2CCOCC2)cc1`, the cell number change was -16.9%. Further, the AC50 under setting [1] is 18.4 µM [falling, single point].

Consider `O=C(CCn1cnc2ccccc2c1=O)Nc1ccc(S(=O)(=O)N2CCCC2)cc1`, for which the cell number change is -3.48%. Moreover, the AC50 under setting [2] was 0.731 µM [falling, full curve, poor fit]. For the same compound, the AC50 under setting [1] was 20.6 µM [falling, single point].

As to `CN1CCN(S(=O)(=O)c2ccc(N3CCc4ccccc4C3)nc2)CC1`, the cell number change is -17.5%.

With `Cc1cccc(C)c1NC(=O)C1CCCN1C(=O)OC(C)(C)C` (stereo not given), the cell number change came out at 4.64%. Further, the AC50 under setting [1] is 29.1 µM [rising, single point].

Consider `O=C(Nn1cnc2ccccc2c1=O)c1cccc(Cl)c1`, for which the cell number change was determined as 15.8%.

With `COc1ccc(NC(=O)CN(C)S(=O)(=O)c2ccc3c(c2)OCCO3)c2ncccc12`, the cell number change is -0.0153%. The AC50 under setting [1] was 4.61 µM [rising, single point].

In the case of `COc1ccc(NC(=O)c2cc(-c3ccc(OC)c(OC)c3)on2)cc1OC`, the cell number change was found to be 46.8%. For the same compound, the AC50 under setting [2] is 5.17 µM [rising, full curve]. Besides, under setting [1], the half-maximal activity concentration (AC50) was 1.3 µM [rising, partial curve].

Turning to `Cc1ccc2cc3c(N)c(C(=O)Nc4c(C)[nH]c(=O)[nH]c4=O)sc3nc2c1`, the cell number change came out at 61.5%. Further, the AC50 under setting [2] was 6.51 µM [rising, single point]. Moreover, the AC50 under setting [1] was 1.64 µM [falling, partial curve].

Consider `CC(C)C[C@H](NC(=O)c1[nH]cnc1C(=O)N[C@@H](C)c1ccccc1)C(=O)OCc1ccccc1`, for which the cell number change was -19.3%.

For the compound `O=C(NCc1ccccc1)C1CCN(S(=O)(=O)c2cc([N+](=O)[O-])ccc2Cl)CC1`, the cell number change was -4.4%. Besides, under setting [2], the half-maximal activity concentration (AC50) was 0.00461 µM [rising, full curve, poor fit]. Besides, under setting [1], the AC50 is 25.9 µM [falling, partial curve].

`COCCOc1ccc(C(F)(F)F)cc1NC(=O)c1ccc(F)cc1`: the cell number change turned out to be 10.4%. Further, the AC50 under setting [1] was 29.1 µM [rising, partial curve].

As for `CCOC(=O)c1sc(Nc2nc3ccc(OC)cc3s2)cc1C`, the cell number change is -19%. For the same compound, the AC50 under setting [1] is 29.1 µM [falling, single point].

Regarding `Cc1cc(NC(=O)c2cccc(S(=O)(=O)N(C)C)c2)n(-c2ccccn2)n1`, the AC50 by setting is: under setting [2], 0.291 µM [rising, full curve]; under setting [1], 0.092 µM [rising, full curve, poor fit].

Turning to `COc1ccccc1C(=O)NCCC(=O)N1CCCCC1`, the cell number change is 27.9%. Under setting [2], the AC50 was 4.11 µM [rising, full curve, poor fit].

Turning to `Cc1cc(NC(=O)CC(C)C)c(=O)n(Cc2cccc(F)c2)c1`, the cell number change was 2.64%. The AC50 under setting [1] was 0.231 µM [rising, full curve, poor fit].

Consider `CC1(C2CC2)NC(=O)N(CC(=O)N2CCN(S(=O)(=O)c3ccc(F)c(F)c3)CC2)C1=O` (stereo not given), for which the cell number change is -13.6%.

With `CC(=O)Nc1ccc(OCC(O)CN2CCN(c3ccc(F)cc3)CC2)cc1` (stereo not given), the cell number change stood at 30.2%. In addition, under setting [2], the AC50 is 0.0231 µM [rising, full curve, poor fit].

For `COc1cc(C(C)=O)ccc1OCC(O)CNCC1(N2CCCCC2)CCCCC1` (stereo not given), the cell number change turned out to be 12.3%.

For the compound `Cc1cc(N2C(=O)C3C4CC(c5ccccc5)C(C4)C3C2=O)no1` (stereo not given), the cell number change was -24.2%. Under setting [1], the AC50 was 29.1 µM [falling, single point].

On to `CC(C)(C)c1ccc(C(=O)O)c(C(=O)c2ccc(C(=O)O)cc2)c1`, for which the cell number change is -7.68%. Besides, the AC50 under setting [1] was 8.2 µM [falling, partial curve].

As for `O=C(CC(=O)N/N=C\c1ccccc1)NCCc1ccccc1`, the cell number change came out at 13.1%. Also, the AC50 under setting [1] is 32.6 µM [rising, single point].

Turning to `COC(=O)c1sc(NC(=O)c2cc(-c3ccccc3)nc3ccccc23)c(C#N)c1C`, the cell number change was -24.8%. Further, the AC50 under setting [1] is 0.58 µM [rising, full curve, poor fit].

Turning to `Cc1[nH]c2ccc(C(=O)N3CCCCC3)cc2c1C`, the cell number change stood at 12.7%. The AC50 under setting [1] is 2.59 µM [rising, single point].

For `Cc1c(C(=O)NCCSCc2c(Cl)cccc2Cl)cccc1[N+](=O)[O-]`, the cell number change turned out to be 3.81%. Also, under setting [1], the AC50 was 0.0731 µM [rising, full curve, poor fit].

For `COc1ccc(-c2n[nH]c(C)c2-c2ccccc2OC)c(O)c1`, the cell number change was -6.94%.

As for `Cc1c(C(=O)O)[nH]c2c1C(=O)CC(c1ccc(Cl)cc1)C2` (stereo not given), the cell number change was 11.8%. Further, the AC50 under setting [2] was 0.164 µM [falling, full curve, poor fit].

As to `COc1ccc(F)c(-c2nc(CN3CCC(c4ccccc4)CC3)c(C)o2)c1`, the cell number change is -10.2%. For the same compound, the AC50 under setting [2] is 6.51 µM [falling, single point]. For the same compound, under setting [1], the AC50 is 6.51 µM [falling, single point].

Turning to `O=c1[nH]c(/C=C\c2cccc(Cl)c2)nc(O)c1[N+](=O)[O-]`, the cell number change was determined as 20.4%. For the same compound, under setting [2], the AC50 was 0.00411 µM [rising, full curve, poor fit]. Moreover, the AC50 under setting [1] was 29.1 µM [rising, single point].

Regarding `O=C(CN1CCN(c2ccccn2)CC1)Nc1ccc(Br)cc1`, the cell number change is 10.3%. The AC50 under setting [1] is 4.61 µM [rising, full curve, poor fit].

`O=C(N1CCOCC1)N(CCN1CCOCC1)Cc1cccc(Cl)c1`: the cell number change was found to be 17.7%. The AC50 under setting [2] is 4.11 µM [rising, single point].

As for `O=C(Nc1nc2ccc(Oc3ccccc3)cc2s1)c1cc([N+](=O)[O-])ccc1N1CCOCC1`, the cell number change is -21.6%. For the same compound, under setting [1], the AC50 was 13 µM [falling, single point].

On to `CCc1cc(-c2n[nH]c(C)c2-c2nc3ccccc3s2)c(O)cc1OCC(=O)NN`, for which the cell number change was -35.9%. The AC50 under setting [2] is 3.66 µM [falling, full curve].

On to `CSc1ccccc1C(=O)NCCSc1ccccc1`, for which the cell number change turned out to be 35.5%. Also, the AC50 under setting [2] was 0.82 µM [rising, full curve]. Under setting [1], the AC50 is 23.1 µM [rising, partial curve].

With `CC(C1CC2CCC1C2)n1c(-c2ccco2)n[nH]c1=S` (stereo not given), the AC50 under setting [2] is 2.31 µM [rising, partial curve] and the AC50 under setting [1] is 3.26 µM [rising, partial curve].

`COc1cccc(C(=O)Nc2c3c(nn2-c2cccc(C)c2C)CS(=O)(=O)C3)c1OC`: the half-maximal activity concentration (AC50) by setting is: under setting [2], 1.64 µM [rising, partial curve, poor fit]; under setting [1], 0.82 µM [rising, partial curve].

Take `CC(=O)Oc1ccc(C(=O)Nc2ccc3c(c2)C(=O)N(CCC(=O)O)C3=O)cc1`: the cell number change is -13.3%. In addition, the AC50 under setting [2] is 0.103 µM [falling, full curve, poor fit]. Besides, the AC50 under setting [1] is 0.731 µM [falling, full curve].

For `Cc1ccc(C(=O)OC2=CC(=O)CC(C)(C)C2)cc1`, the cell number change came out at 6.61%. Further, the AC50 under setting [1] was 29.1 µM [falling, single point].

Consider `COc1ccc(-c2nc3ncccc3o2)cc1NC(=O)c1ccco1`, for which the cell number change is -26.9%.

Take `Cc1ccc(S(=O)(=O)NCCN=C(CN2CCCC2)NS(=O)(=O)c2ccc(C)cc2)cc1`: the cell number change is -2.36%. For the same compound, under setting [2], the AC50 is 4.11 µM [falling, single point].

Turning to `O=CC1=C(N2CCOCC2)/C(=C/c2ccc(Cl)cc2)CC1`, the AC50 reads like this: under setting [2], 6.51 µM [falling, single point]; under setting [1], 4.61 µM [falling, single point].

`COc1cc(CNn2cnnc2)ccc1OCC(=O)NC(C)(C)C`: the cell number change is -4.65%. Moreover, the AC50 under setting [1] is 6.51 µM [falling, single point].

As for `Nc1cccc(-n2nncc2-c2ccc(Cl)cc2)c1`, the cell number change is -25.4%. Moreover, the AC50 under setting [1] was 0.82 µM [rising, full curve].

For `COc1ccc(CCNC(=O)c2cccc(S(=O)(=O)N3CCCCCC3)c2)cc1`, the cell number change was -19.3%. Further, the AC50 under setting [1] is 3.66 µM [falling, full curve, poor fit].

These data come from PubChem BioAssay AID2685 (National Center for Advancing Translational Sciences (NCATS), 2010).
